Where two headings read alike, the source gives them in different places. These are yes or no findings as the source states them, for the method shown. Binding seen in cells or lysates may run through a third protein. Some binding calls cover weakened binding; strength is not graded here. For part of these data: Tags and fused reporters may be left off the sequences shown.

Chains of the proteins cited; added tags and fusions are not shown. Lines headed by an entry give the natural chain unless they say otherwise; changes in a name come on top. Residues count along the entry.
UniProt P10909, residues 23-449: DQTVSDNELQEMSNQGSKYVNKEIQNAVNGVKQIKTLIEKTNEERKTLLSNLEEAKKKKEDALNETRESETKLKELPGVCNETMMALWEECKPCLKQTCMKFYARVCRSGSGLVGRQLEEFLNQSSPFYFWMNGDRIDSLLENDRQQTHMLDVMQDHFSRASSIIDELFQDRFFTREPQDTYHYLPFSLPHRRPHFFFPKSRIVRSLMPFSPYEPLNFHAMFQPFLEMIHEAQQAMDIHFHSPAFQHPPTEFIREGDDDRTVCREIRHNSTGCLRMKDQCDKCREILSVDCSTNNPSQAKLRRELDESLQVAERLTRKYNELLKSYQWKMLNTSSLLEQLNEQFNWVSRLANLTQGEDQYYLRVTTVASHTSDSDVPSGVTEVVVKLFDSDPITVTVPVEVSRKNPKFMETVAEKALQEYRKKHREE

Assay [1] concerns the target T1, TGFBR1 (endogenous, H460-tet-CLU cells) (human (endogenous in H460)) (UniProt P36897).
T1 sequence: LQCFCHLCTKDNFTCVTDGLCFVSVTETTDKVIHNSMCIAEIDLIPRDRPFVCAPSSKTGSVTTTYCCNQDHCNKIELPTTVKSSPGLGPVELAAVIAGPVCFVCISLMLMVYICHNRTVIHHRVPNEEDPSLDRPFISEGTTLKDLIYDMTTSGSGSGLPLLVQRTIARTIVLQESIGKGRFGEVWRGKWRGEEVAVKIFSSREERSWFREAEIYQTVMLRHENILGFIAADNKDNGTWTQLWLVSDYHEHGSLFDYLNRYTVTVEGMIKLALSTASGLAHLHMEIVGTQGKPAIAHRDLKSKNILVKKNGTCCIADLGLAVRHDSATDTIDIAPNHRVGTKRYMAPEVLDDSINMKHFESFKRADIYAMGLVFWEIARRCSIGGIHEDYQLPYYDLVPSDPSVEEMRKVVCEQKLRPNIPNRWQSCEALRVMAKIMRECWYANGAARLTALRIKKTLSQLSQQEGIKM
The assay is described as follows: co-IP; H460-tet-CLU cell lysate, endogenous proteins, with or without Dox-induced CLU; IP with TAK1 antibody, western blot with TGFBR1, TAK1 and CLU antibodies. (In general: In western blotting, separated proteins are transferred to a membrane and probed.)

For assay [2], the target named is T2, TGFBR1-myc (UniProt P36897).
T2 sequence: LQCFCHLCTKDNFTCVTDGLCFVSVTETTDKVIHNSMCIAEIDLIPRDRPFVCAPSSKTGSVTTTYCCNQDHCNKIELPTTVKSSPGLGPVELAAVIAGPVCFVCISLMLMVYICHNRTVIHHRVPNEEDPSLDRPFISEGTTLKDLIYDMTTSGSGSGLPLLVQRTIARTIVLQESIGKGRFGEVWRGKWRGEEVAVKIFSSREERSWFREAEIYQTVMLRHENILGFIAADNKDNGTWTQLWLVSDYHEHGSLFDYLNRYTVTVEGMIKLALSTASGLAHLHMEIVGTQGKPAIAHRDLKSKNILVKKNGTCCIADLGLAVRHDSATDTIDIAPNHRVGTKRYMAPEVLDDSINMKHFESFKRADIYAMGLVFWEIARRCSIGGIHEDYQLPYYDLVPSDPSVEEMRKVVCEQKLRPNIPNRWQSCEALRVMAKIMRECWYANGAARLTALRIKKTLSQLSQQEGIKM
The assay is described as follows: co-IP; 293T-tet-CLU cells co-transfected with tagged proteins, with or without Dox-induced CLU; IP with Myc or Flag antibody, western blot with tag and CLU antibodies.

The target of assay [3] is T3, TGFBR1-C-luc (pCAG-TGFBR1-C-luc) (UniProt P36897).
T3 sequence: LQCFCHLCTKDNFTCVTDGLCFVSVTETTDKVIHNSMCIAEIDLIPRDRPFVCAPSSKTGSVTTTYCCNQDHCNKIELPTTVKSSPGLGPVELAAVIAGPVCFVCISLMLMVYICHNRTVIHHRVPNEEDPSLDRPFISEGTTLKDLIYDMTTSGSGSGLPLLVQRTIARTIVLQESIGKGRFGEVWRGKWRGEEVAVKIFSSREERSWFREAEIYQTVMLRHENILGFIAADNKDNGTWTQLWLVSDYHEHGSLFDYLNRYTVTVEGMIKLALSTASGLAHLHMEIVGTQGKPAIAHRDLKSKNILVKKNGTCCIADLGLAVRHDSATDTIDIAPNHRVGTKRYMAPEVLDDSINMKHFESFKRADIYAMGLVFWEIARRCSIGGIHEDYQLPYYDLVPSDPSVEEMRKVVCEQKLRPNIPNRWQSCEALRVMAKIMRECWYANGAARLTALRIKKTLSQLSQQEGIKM
The assay is described as follows: split reporter; split luciferase halves (C-luc, Nluc) fused to the two proteins; 293T-tet-CLU cells, 250 ng of each plasmid in 24 well plate, 50 ng Renilla vector as transfection control, 1 μg/mL Dox to induce CLU; Dual Luminescent Kit.

The target in assay [4] is T2, TGFBR1-myc. Put plainly: co-IP; 293T cells co-transfected with CLU-3×Flag and TGFBR1-myc (or its mutant) for 24 h; IP with Flag or with myc antibody, immunoblot with Flag and Myc tag antibodies.
Assay [5] addresses T4, TGFBR1-myc mutant deleted of the 123-218aa region (UniProt P36897).
T4 sequence: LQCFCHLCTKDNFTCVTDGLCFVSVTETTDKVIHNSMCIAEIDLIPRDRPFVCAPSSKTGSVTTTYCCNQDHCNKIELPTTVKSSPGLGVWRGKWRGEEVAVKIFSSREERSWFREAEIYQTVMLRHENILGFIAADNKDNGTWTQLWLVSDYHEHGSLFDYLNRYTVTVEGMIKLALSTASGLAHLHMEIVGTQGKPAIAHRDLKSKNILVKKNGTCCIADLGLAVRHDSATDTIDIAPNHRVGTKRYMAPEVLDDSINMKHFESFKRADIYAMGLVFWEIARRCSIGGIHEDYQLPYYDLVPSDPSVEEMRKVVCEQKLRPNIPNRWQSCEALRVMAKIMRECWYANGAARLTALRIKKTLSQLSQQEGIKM
Described as above.

The target in assay [6] is T3, TGFBR1-C-luc (pCAG-TGFBR1-C-luc). The assay is described as follows: split reporter; split luciferase halves (C-luc, Nluc) fused to the two proteins; 293T-tet-CLU cells, 250 ng of each plasmid in 24 well plate, 50 ng Renilla vector as transfection control, 1 μg/mL Dox to induce CLU; Dual Luminescent Kit. This is another data set of the same source.

As for “Clusterin (CLU), Dox-inducible, in 293T-tet-CLU and H460-tet-CLU cells (from UniProt P10909 23-449)”, the binding result (in assay [1]; with TGFBR1-myc [2]; in assay [3]) was “binds” each time.
Regarding “CLU-3×Flag (Clusterin, full-length variant sCLU) (from UniProt P10909-1 23-449)”, the figures for the binding entry (with TGFBR1-myc [4]; in assay [5]) were “binds” and “binds weakly”, respectively.

B1: TAB2-Nluc (pCAG-TAB2-Nluc) (protein, UniProt Q9NYJ8 1-693)
chain: MAQGSHQIDFQVLHDLRQKFPEVPEVVVSRCMLQNNNNLDACCAVLSQESTRYLYGEGDLNFSDDSGISGLRNHMTSLNLDLQSQNIYHHGREGSRMNGSRTLTHSISDGQLQGGQSNSELFQQEPQTAPAQVPQGFNVFGMSSSSGASNSAPHLGFHLGSKGTSSLSQQTPRFNPIMVTLAPNIQTGRNTPTSLHIHGVPPPVLNSPQGNSIYIRPYITTPGGTTRQTQQHSGWVSQFNPMNPQQVYQPSQPGPWTTCPASNPLSHTSSQQPNQQGHQTSHVYMPISSPTTSQPPTIHSSGSSQSSAHSQYNIQNISTGPRKNQIEIKLEPPQRNNSSKLRSSGPRTSSTSSSVNSQTLNRNQPTVYIAASPPNTDELMSRSQPKVYISANAATGDEQVMRNQPTLFISTNSGASAASRNMSGQVSMGPAFIHHHPPKSRAIGNNSATSPRVVVTQPNTKYTFKITVSPNKPPAVSPGVVSPTFELTNLLNHPDHYVETENIQHLTDPTLAHVDRISETRKLSMGSDDAAYTQALLVHQKARMERLQRELEIQKKKLDKLKSEVNEMENNLTRRRLKRSNSISQIPSLEEMQQLRSCNRQLQIDIDCLTKEIDLFQARGPHFNPSAIHNFYDNIGFVGPVPPKPKDQRSIIKTPKTQDTEDDEGAQWNCTACTFLNHPALIRCEQCEMPRHF
In the case of B1, in assay [6], the binding entry is recorded as “binds”.

The record behind these values is PMC7545994.
